Experimental data: patent publication US20210338783

System: RuvA/RuvB/RuvC complex (RuvABC) (Escherichia coli)
Experiment: enzyme reaction in vitro
Details: 20 nM HJ DNA, RuvA 160 nM, RuvB 240 nM, RuvC 160 nM; Mg2+ (10 mM) dependent; also cleaves HJ prebound with E. coli HU; 37 C; purified recombinant protein; protein details: tagless, RuvB and RuvC via IMPACT intein (NEB); label: 5'-FAM on SEQ 13 strand; folded or branched DNA

GACGCTGCCGAATTCTGGCTTGCTAGGACATCTTTGCCCACGTTGACCC / TGGGTCAACGTGGGCAAAGATGTCCTAGCAATGTAATCGTCTATGACGTT / CAACGTCATAGACGATTACATTGCTAGGACATGCTGTCTAGAGACTATCGA / ATCGATAGTCTCTAGACAGCATGTCCTAGCAAGCCAGAATTCGGCAGCGT [synthetic Holliday junction DNA]
activity on this sequence: active

The exact form of at least one protein or probe is not confirmed.
